Laboratory results: publication PMC6557631
No constants are given. Whether binding was seen depends on the method and setting. In cells and extracts the contact can be indirect. Some results given as binding are weak or reduced against the parent protein; the word gives no strength.

The chains behind the UniProt entries cited, without tags or fusion partners. Where a name states a change or a piece, a line headed by the entry shows the natural chain unless it says otherwise.
UniProt P03101: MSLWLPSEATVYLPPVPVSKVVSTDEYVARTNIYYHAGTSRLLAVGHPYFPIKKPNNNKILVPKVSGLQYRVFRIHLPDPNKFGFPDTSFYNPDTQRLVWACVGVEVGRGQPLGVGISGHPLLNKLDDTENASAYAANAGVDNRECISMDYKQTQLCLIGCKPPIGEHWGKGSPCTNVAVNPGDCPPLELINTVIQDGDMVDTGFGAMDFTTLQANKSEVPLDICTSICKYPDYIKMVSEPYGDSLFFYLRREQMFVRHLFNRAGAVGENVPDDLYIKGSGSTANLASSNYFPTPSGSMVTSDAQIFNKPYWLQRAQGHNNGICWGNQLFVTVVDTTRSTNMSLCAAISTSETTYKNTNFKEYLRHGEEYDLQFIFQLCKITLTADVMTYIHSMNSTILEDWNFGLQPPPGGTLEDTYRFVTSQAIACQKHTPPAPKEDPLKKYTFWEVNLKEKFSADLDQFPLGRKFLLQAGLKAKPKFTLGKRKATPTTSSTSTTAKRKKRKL

Target: T1, tetraspanin CD151 (human (endogenous in HaCaT)) (UniProt P48509)
T1 sequence: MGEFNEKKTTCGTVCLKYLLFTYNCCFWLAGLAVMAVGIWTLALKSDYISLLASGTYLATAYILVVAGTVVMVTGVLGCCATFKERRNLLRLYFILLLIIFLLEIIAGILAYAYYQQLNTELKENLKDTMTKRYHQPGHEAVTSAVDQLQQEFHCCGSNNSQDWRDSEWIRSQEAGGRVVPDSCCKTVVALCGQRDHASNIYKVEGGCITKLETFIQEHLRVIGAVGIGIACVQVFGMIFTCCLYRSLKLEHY
Test: proximity ligation; Duolink PLA on fixed HaCaT cells incubated with HPV16 PsVs for 5 hr; primary antibodies anti-CD151 mAb 11G5A and anti-L1 pAb K75; cells treated with control or ADAM17 siRNA, with or without EGF (20 ng/ml) pre-treatment; only the binder purified

With “HPV16 pseudovirions (PsVs) (from UniProt P03101 1-505; P03107 1-473) (complex)” the binding was “binds”.
